Results are given in words; binding and its absence hold for the method and conditions named. Some results given as binding are weak or reduced against the parent protein; the word gives no strength.

The target of this assay is Superoxide dismutase (Mn/Fe-dependent SOD) from Aeropyrum pernix K1 (Aeropyrum pernix K1) (UniProt Q9Y8H8). The assay is described as follows: SEC; data not shown; partially purified SODAp, gel filtration on Superdex 200 as for SODSs; both purified. On the technique in general: SEC sorts molecules by how far they enter the pores of the column.

B1: Superoxide dismutase (Mn/Fe-dependent SOD) from Aeropyrum pernix K1 (enzyme, UniProt Q9Y8H8 1-214)
chain: MVSFKRYELPPLPYNYNALEPYIIEEIMKLHHQKHHNTYVKGANAALEKIEKHLKGEIQIDVRAVMRDFSFNYAGHIMHTIFWPNMAPPGKGGGTPGGRVADLIEKQFGGFEKFKALFSAAAKTVEGVGWGVLAFDPLTEELRILQVEKHNVLMTAGLVPILVIDVWEHAYYLQYKNDRGSYVENWWNVVNWDDVEKRLEQALNNAKPLYLLPQ
Turning to B1, the binding result is “binds”.

These data come from PMC9495943, “Recombinant Expression of Archaeal Superoxide Dismutases in Plant Cell Cultures: A Sustainable Solution with Potential Application in the Food Industry” (Antioxidants, 2022).
